In article PMC9491836:

Legend:
[1] = target: response regulator ChrA (BACTH fusion) (Corynebacterium glutamicum ATCC 13032) (UniProt Q8NP17); assay: two-hybrid; BACTH plate assay in E. coli BTH101; T25 and T18 fusions (histidine kinases as C-terminal fusions); spotted on LB with X-Gal, kanamycin, ampicillin, 0.5 mM IPTG, about 24 h at 30°C; blue colonies mean interaction
[2] = target: response regulator ChrA (BACTH fusion) (Corynebacterium glutamicum ATCC 13032) (UniProt Q8NP17); assay: two-hybrid; BACTH quantitative β-galactosidase assay (Miller units) in E. coli BTH101; T25 and T18 fusions (histidine kinases as C-terminal fusions); triplicates in LB with 0.5 mM IPTG, ONPG

- binding [1]: binds
- binding [2]: binds
Substance: histidine kinase ChrS (C-terminal BACTH fusions) (from UniProt Q8NP16)

No constants are given. Whether binding was seen depends on the method and setting. Binding calls can cover weak binding; strength is not graded here.
